Laboratory results as given in patent publication US20180265577A1.
Results are given in words; binding and its absence hold for the method and conditions named. Some entries that bind do so weakly or less than the wild type.

Chains of the proteins cited; added tags and fusions are not shown. Lines headed by an entry give the natural chain unless they say otherwise; changes in a name come on top. A line that says so, or that is headed by a name, gives the form on record, which may keep a tag or linker.
UniProt P10636: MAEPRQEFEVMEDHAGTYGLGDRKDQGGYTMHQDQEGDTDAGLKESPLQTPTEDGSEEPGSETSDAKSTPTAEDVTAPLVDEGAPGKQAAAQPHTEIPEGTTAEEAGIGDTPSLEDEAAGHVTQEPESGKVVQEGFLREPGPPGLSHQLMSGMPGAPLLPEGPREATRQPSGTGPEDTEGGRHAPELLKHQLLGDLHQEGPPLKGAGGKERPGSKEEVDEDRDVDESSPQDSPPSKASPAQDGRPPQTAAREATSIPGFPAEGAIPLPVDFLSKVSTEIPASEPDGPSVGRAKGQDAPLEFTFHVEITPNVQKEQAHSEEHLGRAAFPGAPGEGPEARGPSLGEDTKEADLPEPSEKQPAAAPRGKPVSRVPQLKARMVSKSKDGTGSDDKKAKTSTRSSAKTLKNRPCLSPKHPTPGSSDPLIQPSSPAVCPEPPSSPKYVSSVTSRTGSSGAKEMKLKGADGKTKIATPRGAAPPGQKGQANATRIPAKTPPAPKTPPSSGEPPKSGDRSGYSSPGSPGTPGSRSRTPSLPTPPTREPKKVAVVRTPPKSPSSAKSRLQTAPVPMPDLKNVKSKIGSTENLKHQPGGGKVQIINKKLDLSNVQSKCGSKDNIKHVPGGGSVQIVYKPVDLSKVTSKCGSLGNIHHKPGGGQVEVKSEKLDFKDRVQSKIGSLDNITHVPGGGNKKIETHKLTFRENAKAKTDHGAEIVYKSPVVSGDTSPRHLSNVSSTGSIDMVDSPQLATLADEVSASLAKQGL
aggregated tau in FFPE brain sections of a PD (Pick's disease) patient (P10636, form named): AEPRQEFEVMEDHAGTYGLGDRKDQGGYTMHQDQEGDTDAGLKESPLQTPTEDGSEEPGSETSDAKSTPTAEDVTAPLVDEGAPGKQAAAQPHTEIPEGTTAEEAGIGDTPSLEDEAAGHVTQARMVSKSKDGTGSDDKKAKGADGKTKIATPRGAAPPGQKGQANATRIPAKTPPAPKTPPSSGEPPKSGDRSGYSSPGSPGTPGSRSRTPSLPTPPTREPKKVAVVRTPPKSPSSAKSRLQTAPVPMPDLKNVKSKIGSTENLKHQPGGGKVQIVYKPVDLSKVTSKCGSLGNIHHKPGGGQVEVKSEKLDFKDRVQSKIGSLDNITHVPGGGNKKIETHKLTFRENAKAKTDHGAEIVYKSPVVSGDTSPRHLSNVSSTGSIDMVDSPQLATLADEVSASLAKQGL

How the values were obtained:
[1] = biological target: aggregated tau in FFPE brain sections of a PD (Pick's disease) patient (human) (UniProt P10636); test: immunohistochemistry on FFPE brain sections, semi-quantitative score (severe, +++)
[2] = biological target: aggregated tau in FFPE brain sections of an AD patient (human) (UniProt P10636); test: as above
[3] = biological target: aggregated tau in FFPE brain sections of a "normal" individual (displaying minimal tau aggregation) (human) (UniProt P10636); test: immunohistochemistry on FFPE brain sections
[4] = biological target: aggregated tau in FFPE brain sections of a PD (Pick's disease) patient (human) (UniProt P10636); test: immunohistochemistry on FFPE brain sections
[5] = biological target: aggregated tau in FFPE brain sections of an AD patient (human) (UniProt P10636); test: immunohistochemistry on FFPE brain sections
recombinant tau (rTau) = recombinant tau (rTau) (UniProt P10636); test: direct ELISA on rTau coated at 15 ng/ml after accelerated degradation
[6] = biological target: aggregated tau in FFPE brain sections of a "normal" individual (displaying minimal tau aggregation) (human) (UniProt P10636); test: immunohistochemistry on FFPE brain sections, semi-quantitative score (mild, +)

binding [1]: binds | binding [2]: binds | binding [3]: binds | binding [4]: binds | binding [5]: binds | binding (recombinant tau (rTau)): binds | binding [6]: binds
B1: exemplified tau monoclonal antibody of Example 1 (antibody, human IgG4 S228P, kappa, F234A L235A, V domains shown)
VH: EVQLVQSGAEVKKPGESLKISCKGSGYTFSNYWIEWVRQMPGKGLEWMGEILPGSDSIKYEKNFKGQVTISADKSISTAYLQWSSLKASDTAMYYCARRGNYVDDWGQGTLVTVSS
VL: EIVLTQSPGTLSLSPGERATLSCRSSQSLVHSNQNTYLHWYQQKPGQAPRLLIYKVDNRFSGIPDRFSGSGSGTDFTLTISRLEPEDFAVYYCSQSTLVPLTFGGGTKVEIKR
